# Reference: PubChem BioAssay AID2685 (National Center for Advancing Translational Sciences (NCATS), 2010)
# The whole screen tested about 320,000 compounds, of which about 2,100 (0.66%) were called active. The inconclusive results got no clear call from the source; some entries with a clear call stand among them for comparison. Calls follow the shape of the dose curve; as a rule, active = well fitted inhibition curve with a large enough effect in the signal ratio, with a control signal flat (not every such curve was filed as active); inconclusive = small, poorly fitted or top-dose-only effect, or effect the other way, or a change in a side signal; inactive = flat fitted curve, though single readings scatter; the % refers to the signal ratio. Potencies of inconclusive entries are doubtful fits and often do not repeat.
# Experiment: qHTS Assay for Lipid Storage Modulators in Drosophila S3 Cells
# Conditions: BODIPY lipid droplet fluorescence, 18-24 h, cells fed with added oleic acid; lipid storage change, negative = inhibition: at 46.1 µM (top of the series) unless noted
# Procedure, shortened: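 Drosophila S3 cells loaded with oleic acid (400 uM, as added) and compounds at several concentrations; lipid droplets imaged by 488-nm laser-scanning cytometry, 500–530 nm intensity and object ratio to cell channel. Percent activity normalized to 20 uM Triacsin C.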
# % is scaled to controls: 0 for no effect and ±100 for the full control effect; potency is read from the fitted curve at half-maximal effect.
SMILES,"lipid storage change, negative = inhibition",Potency
CN1/C(=C\C(=O)c2cncc(Br)c2)C(C)(C)c2ccccc21,inconclusive: -91.5%,
O=C1CSC(=NC2CCCCC2)N1,,"inconclusive: 25.9 µM [falling, partial curve, poor fit]"
Cc1ccc(SCc2nc3ccccc3n2CC(=O)Nc2c(C)cccc2C)cc1,inactive,
CC(C)(C)c1ccc(CNc2ccc([N+](=O)[O-])cn2)cc1,inconclusive: -25.9%,
Cc1cccc2c(N=Nc3ccc(S(=O)(=O)Nc4ccc(Cl)cc4)cc3[N+](=O)[O-])c(O)[nH]c12,inconclusive: 23.6%,
Cc1nc2sccn2c1P(c1c(C)nc2sccn12)c1c(C)nc2sccn12,inconclusive: 16.6%,
Cc1noc(/C=C/c2ccco2)c1S(=O)(=O)N1CCC(C(=O)N(C)Cc2ccccc2)CC1,inconclusive: -22%,
Cc1cccc2cc(C3CC(c4ccco4)=NN3S(=O)(=O)c3ccccc3)c(Cl)nc12 (centres undefined),inconclusive: 34.5%,
CCOc1ccc(S(=O)(=O)N2CCN(C(=O)Cc3ccc(S(=O)(=O)N4CCOCC4)s3)CC2)cc1,,"inconclusive: 23.1 µM [falling, single point]"
OCCN1CCN(CCOc2ccccc2-c2ccccc2)CC1,inconclusive: -1.99%,
Cc1ccc(NC(NC(=O)OCCn2c([N+](=O)[O-])cnc2C)C(Cl)(Cl)Cl)cc1 (centres undefined),inconclusive: -16.2%,
Cc1c(C(=O)NCc2cccnc2)sc2nc(-c3ccc(F)cc3)cn12,inconclusive: -29.2%,
Cc1nc(Cc2nnc(SC(C)C(=O)N3c4ccccc4NC(=O)C3(C)C)o2)cs1 (centres undefined),inconclusive: 24%,
CCOc1ccc2ncc(C(=O)c3ccc(OC)cc3)c(N3CCN(CC)CC3)c2c1,inconclusive: -2.02%,
CNC(=O)C1CCC(=O)N1Cc1ccccc1Cl (centres undefined),,active: 29.1 µM
COc1ccc(N(C)S(=O)(=O)c2cccc(C(=O)Nc3ccc(-n4cnnn4)cc3)c2)cc1,,"inconclusive: 0.164 µM [cytotoxic, full curve, poor fit]"
NC(=O)CSc1nnc(-c2cc(-c3cccs3)nc3ccccc23)o1,,"inconclusive: 20.6 µM [activator, single point]"
C#CCn1c(O)c(N=NC(=O)C(O)c2ccccc2)c2ccccc21 (centres undefined),inconclusive: 16.9%,
CN(C)/C=N/c1ncn(-c2ncc(C(F)(F)F)cc2Cl)n1,inconclusive: -45.6%,
c1ccc(C2=Nc3ccccc3OC2)cc1,inconclusive: 7.44%,
O=C(NCCc1ccc(F)cc1)C(=O)NCC1CCCN1S(=O)(=O)c1ccccc1 (centres undefined),inconclusive: 37.7%,
Cn1c(=O)c(C(=O)NC2CCCCCC2)c(O)c2ccccc21,,"inconclusive: 18.4 µM [falling, single point]"
Cc1ccc(C(=O)COc2ccc3ccc(=O)oc3c2)cc1,inconclusive: 4.21%,
COc1ccc(-c2cc(C(=O)NCCCN3CCCC3=O)c3ccccc3n2)cc1OC,inconclusive: -7.1%,
COc1cccc(CC(=O)Nc2nc(-c3cccnc3)cs2)c1,,"inconclusive: 0.146 µM [activator, partial curve, poor fit]"

SMILES,"lipid storage change, negative = inhibition",Potency
COCCSc1ccccc1C(=O)N1CCc2ccccc2C1,inconclusive: -13.5%,
O=C(COC(=O)Cc1ccc(S(=O)(=O)N2CCOCC2)s1)NCc1ccccc1,,"inconclusive: 1.46 µM [falling, partial curve]"
O=C(O)CCc1nc(-c2cccs2)no1,inactive,
O=C(Nc1cccc(Oc2c(F)c(F)c(F)c(F)c2F)c1)N1C[C@@H]2C[C@@H](C1)c1cccc(=O)n1C2,inconclusive: 15.1%,
Nc1nc(CN2CCN(c3ccccc3F)CC2)nc(Nc2ccccc2)n1,,"inconclusive: 7.31 µM [rising, partial curve]"
CC(=O)NC12CC3CC(C1)CC(C(=O)N1CCN(S(=O)(=O)c4ccc(C(C)C)cc4)CC1)(C3)C2,inconclusive: -100%,
O=C(Nc1cccc2ccccc12)C(=O)C1C(=O)Nc2ccccc21 (centres undefined),inconclusive: 3.04%,
COc1ccc(OC)c(NC(=O)CSc2nc(C)cs2)c1,,"inconclusive: 1.03 µM [rising, full curve, poor fit]"
C=CCc1cccc2cc(C(=O)NNC(=O)CC#N)c(=O)oc12,,"inconclusive: 0.0065 µM [activator, full curve, poor fit]"
CCOc1ccc(CCNC(=O)COC(=O)Cn2nc(C)c([N+](=O)[O-])c2C)cc1OCC,inconclusive: 3.8%,
CN(c1ccccc1)S(=O)(=O)c1cccc(C(=O)Nc2ccc(N3CCOCC3)cc2)c1,inconclusive,
CN(C)/C=N/c1nc2ncc(-c3ccc(Cl)cc3)c(/N=C/N(C)C)n2n1,inconclusive: 16.5%,
O=C(Nc1ccc(S(=O)(=O)Nc2ncccn2)cc1)C12CC3CC(CC(C3)C1)C2,,"inconclusive: 6.51 µM [falling, full curve, poor fit]"
Cc1ccc(/C=N/NC(=S)N2CCOCC2)cc1,,"inconclusive: 18.4 µM [activator, partial curve, poor fit]"
CCc1ccc(C2C(C#N)=C(N)Oc3cc(N)ccc32)cc1 (centres undefined),inconclusive: -40.8%,
CN(C)N1C(N)=C(C#N)C(c2ccccc2)C2=C1CC(C)(C)CC2=O (centres undefined),inconclusive: 10%,
Cc1ccccc1-n1c(SCC(=O)N2CCC(C(=O)O)CC2)nnc1-c1ccncc1,inconclusive: 15.9%,
CC(C)(C)N(Cc1ccccc1)C(=O)COC(=O)C1CCN(c2ccc(C(F)(F)F)cn2)CC1,inconclusive: -89.2%,
CCOc1ccc(CN(C)C(=O)CNC(=O)Cc2cccc3ccccc23)cc1,inconclusive: -100%,
C=CCn1c(SCC(=O)Nc2ccc(C)cc2C)nnc1-c1cccnc1,,"inconclusive: 20.6 µM [activator, single point]"
CCCCN1CC(=O)N2[C@H]3c4cc(OC)ccc4OC[C@@H]3[C@H](C(=O)OCC)[C@]2(C)C1=O,inconclusive: -25.6%,
N=c1n(Cc2ccc(Cl)cc2)c2ccccc2n1CC(O)c1ccco1 (centres undefined),inconclusive: -65.6%,
CC(=O)O[C@H]1C(=O)[C@@]2(C)[C@H]([C@H](OC(=O)c3ccccc3)[C@]3(O)C[C@H](OC(=O)[C@H](O)[C@@H](NC(=O)c4ccccc4)c4ccccc4)C(C)=C1C3(C)C)[C@]1(OC(C)=O)CO[C@@H]1C[C@@H]2O,inconclusive: -20.5%,
Cc1ccc2nc(NNC(=O)c3ccc4c(c3)OCCO4)sc2c1,inconclusive: -1.41%,
COc1ccc(C)cc1N(C(=O)COc1ccccc1)c1nc2ccccc2s1,,"inconclusive: 4.11 µM [activator, full curve]"

# Look-ups from the list:
# lipid storage change, negative = inhibition, `O=C(Nc1cccc2ccccc12)C(=O)C1C(=O)Nc2ccccc21` (centres undefined) is entered as inconclusive: 3.04%
# lipid storage change, negative = inhibition, `O=C(O)CCc1nc(-c2cccs2)no1` is entered as inactive
# lipid storage change, negative = inhibition, `CN(C)/C=N/c1nc2ncc(-c3ccc(Cl)cc3)c(/N=C/N(C)C)n2n1` is entered as inconclusive: 16.5%
# lipid storage change, negative = inhibition, `COCCSc1ccccc1C(=O)N1CCc2ccccc2C1` is entered as inconclusive: -13.5%

# Remaining list, next part

SMILES,"lipid storage change, negative = inhibition",Potency
COc1cccc(OC)c1C(=O)Nc1cc(C)nn1-c1nc2ccccc2[nH]1,inconclusive: -33.6% [at 0.00295 µM],
CCOc1ncccc1C(=O)Nc1ccc(OC)c(S(=O)(=O)N2CCOCC2)c1,inconclusive: -100%,
FC(F)(F)c1ccc(N2CCN(c3cc(-c4ccccc4)nc4ncnn34)CC2)nc1,inconclusive: -61.2%,
OCCN(CCO)c1ncnc2c1sc1nc(N3CCOCC3)c3c(c12)CCCC3,,"inconclusive: 13 µM [activator, partial curve]"
COc1ccccc1OCCC(=O)Nc1cccc(S(=O)(=O)N2CCOCC2)c1,inconclusive: 4.24%,
CC(C)C(=O)NC(c1ccco1)c1c(O)ccc2ccccc12 (centres undefined),inconclusive: 7.68%,
CCn1c(=NC(=O)c2ccc(S(=O)(=O)N3CCOCC3)cc2)sc2cccc(OC)c21,,active: 16.4 µM
COc1ccc(S(=O)(=O)N2CCN(c3ccccc3OC)CC2)cc1,,"inconclusive: 29.1 µM [falling, single point]"
O=C(/C=C/c1cccc([N+](=O)[O-])c1)N1CCN(c2ccccc2F)CC1,inconclusive: 1.51%,
O=S(=O)(NCC1CCCO1)c1ccc(S(=O)(=O)N2CCCC2)cc1 (centres undefined),inconclusive: 13.3%,
COc1cccc(C2NC(=O)NC(C)=C2C(=O)Nc2ccccc2C)c1 (centres undefined),,"inconclusive: 18.4 µM [activator, single point]"
COC(=O)[C@H]1CN(C(=O)c2ccccc2)C(=O)N1,inconclusive: 164%,
CC(=O)Nc1ccccc1OCc1nnc(-c2ccccc2Cl)o1,,"inconclusive: 0.103 µM [activator, full curve, poor fit]"
CCCCNc1ncnc2c1cnn2Cc1ccc(Cl)cc1,inconclusive: -5.5%,
OC(CN1CCCCC1)Cn1c(C(F)(F)F)nc2ccccc21 (centres undefined),inconclusive: -40.9%,
CSc1nc2ccccc2n1CC(=O)Nc1c(C)cccc1C,inconclusive: -63.8%,
COc1ccc(OC)c(NC(=O)CCOc2cccc(C)c2)c1,inconclusive: -24.5%,
COc1ccc(NC(=O)/C=C/c2ccc(F)cc2)cn1,inconclusive: 52%,
Cn1c(-c2csc(-c3ccccc3)n2)n[nH]c1=S,inconclusive: 156%,
O=C(Oc1cccc2c(=O)[nH]ccc12)c1ccccc1,inconclusive: 5.24%,
COc1ccc(-c2csc(NC(=O)Cc3cc(OC)c(OC)c(OC)c3)n2)cc1OC,,"inconclusive: 11.6 µM [falling, single point]"
Cc1cc(C)c(OCC(=O)OCC(=O)N(C)C2CCS(=O)(=O)C2)c(C)c1 (centres undefined),,"inconclusive: 4.11 µM [activator, partial curve]"
CN(C)/C=C/C(=O)c1cnc(-c2ccccc2)s1,,"inconclusive: 29.1 µM [rising, single point]"
C=CCn1c(COc2ccccc2)nnc1SCc1ccc(C#N)cc1,inconclusive: 18.2%,
